The target of the test is T1, HMGN5-GFP (human HMGN5 with C-terminal GFP, HMGN5-FlpIn cell line) (human) (UniProt P82970).
T1 sequence: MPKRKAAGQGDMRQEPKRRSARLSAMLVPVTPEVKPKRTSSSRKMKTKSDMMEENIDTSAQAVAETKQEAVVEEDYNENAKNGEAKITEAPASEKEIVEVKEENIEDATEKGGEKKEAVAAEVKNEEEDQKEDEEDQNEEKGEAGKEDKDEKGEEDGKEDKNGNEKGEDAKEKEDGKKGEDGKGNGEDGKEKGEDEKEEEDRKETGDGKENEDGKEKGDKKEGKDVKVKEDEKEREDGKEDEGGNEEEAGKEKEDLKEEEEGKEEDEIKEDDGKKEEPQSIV
Briefly: co-IP.

No constants are given. Whether binding was seen depends on the method and setting. Binding seen in cells or lysates may run through a third protein. Some results given as binding are weak or reduced against the parent protein; the word gives no strength. Where a sequence is shown, tags or fusion partners need not be part of it.

B1: CTCF (protein, UniProt P49711 1-727)
chain: MEGDAVEAIVEESETFIKGKERKTYQRRREGGQEEDACHLPQNQTDGGEVVQDVNSSVQMVMMEQLDPTLLQMKTEVMEGTVAPEAEAAVDDTQIITLQVVNMEEQPINIGELQLVQVPVPVTVPVATTSVEELQGAYENEVSKEGLAESEPMICHTLPLPEGFQVVKVGANGEVETLEQGELPPQEDPSWQKDPDYQPPAKKTKKTKKSKLRYTEEGKDVDVSVYDFEEEQQEGLLSEVNAEKVVGNMKPPKPTKIKKKGVKKTFQCELCSYTCPRRSNLDRHMKSHTDERPHKCHLCGRAFRTVTLLRNHLNTHTGTRPHKCPDCDMAFVTSGELVRHRRYKHTHEKPFKCSMCDYASVEVSKLKRHIRSHTGERPFQCSLCSYASRDTYKLKRHMRTHSGEKPYECYICHARFTQSGTMKMHILQKHTENVAKFHCPHCDTVIARKSDLGVHLRKQHSYIEQGKKCRYCDAVFHERYALIQHQKSHKNEKRFKCDQCDYACRQERHMIMHKRTHTGEKPYACSHCDKTFRQKQLLDMHFKRYHDPNFVPAAFVCSKCGKTFTRRNTMARHADNCAGPDGVEGENGGETKKSKRGRKRKMRSKKEDSSDSENAEPDLDDNEDEEEPAVEIEPEPEPQPVTPAPPPAKKRRGRPPGRTNQPKQNQPTAIIQVEDQNTGAIENIIVEVKKEPDAEPAEGEEEEAQPAATDAPNGDLTPEMILSMMDR
As to B1, the binding result is listed as “binds”.
